This passage reports z-score results from PubChem BioAssay AID1508600 (Functional Genomics Laboratory (NCATS/FGL), 2020).

The campaign covered roughly 53,000 sequences. About 3,700 (7%) were called active.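 Rule for the calls: active = gene knockdowns whose robust z-score for IL-1 alpha signal is at least 2 or at most -2, so actives lie on both sides; inactive = the rest.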 The list shows a part of the results.

A short description of the assay: Components of the Cytosolic LPS Sensing Pathway: Gene Identification via Genome-wide siRNA Screen.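 Note: robust z of the log signal after scaling to non-targeting control siRNA wells of the plate.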 As to conditions: RAW264.7 macrophages, IL-1a HTRF, actives lie on both sides, screened at 100 nM (by protocol), cells primed 5 h with Pam3CSK4 first. Put shortly: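 IL-1a HTRF of supernatants after 24 hour LipidA transfection of Pam3CSK4-primed (5 hours) RAW264.7 cells, 48h post-siRNA transfection (100 nM). Scores: percent of plate negative-control median, then log-based robust z-score.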
Background: TR-FRET usually uses a lanthanide donor and a delayed reading to cut background.
Take CGUAGGCACCUAUGGUAUATT against H2-Aa: the z-score was inactive: -0.175.
For the sequence CGUUCCAUCUCUAACUGGATT against Rhox3a, the z-score was inactive: 0.431.
With GGAAGACUCCUCAUACCUGTT against Ddit4 the figure was inactive: -0.589.
With GCAUGCAUCGAUUGUGCGCTT against Scml4 the figure was inactive: -0.062; with GCUACCUCAACAUGGAUGCTT against Pcca, inactive: 1.16; with GGAGAAAACAGGCAAUAGUTT against Prr15, inactive: -0.0385.
Then GGCAGCUUUACGAUGUACATT against Lcn2, with inactive: 0.658.
On to CCUUAGACAUCGAAGUAAUTT against Hrh4, for which the z-score is inactive: -0.00723.
As for GGAAGCAGAGCCCGAAAAATT against Ccdc85b, the z-score is inactive: 1.08.
Regarding GGACACAGAAAAUAUCCCATT against Sct, the z-score was inactive: -0.552.
As for GGAAACAAGAGUUGGAUAGTT against Pclo, the z-score was inactive: -0.311.
In the case of GGAUCCUUCCAAAAGGAAATT against Alg3, the z-score was inactive: 1.8.
Then GGGAAAAUGUUGAUGCUGATT against Alppl2, with inactive: -0.393; and GGAAACCUCGCAUCAAUUCTT against Rybp, with inactive: 1.57.
With GGUUUGUGAAAGAUAAUGGTT against Gzmf, the z-score was inactive: -0.242.
Then UCAUCGCAACCAUCCACAGTT against Olfr530, with inactive: 0.464.
With GCUAGGAGACAUUAGCUACTT against Slc13a4 the figure was inactive: -0.661.
Then GGUUUUACACACUCCAUGATT against Olfr1246, with inactive: -0.424.
GCAACUUGUUAGUGGACUCTT against Olfr620: the z-score is inactive: -1.08.
On to GCAGUUAUGUUAUAGCUGCTT against Ctu2, for which the z-score is inactive: 0.0152.
With GGACACAAUUGAAAUAGACTT against Slc5a1 the figure was inactive: -1.73; with GGGUUGUCCAAUGUGAAGGTT against Mettl26, inactive: 0.492; with GCGGAAGUCGACCUUUGAUTT against Cd164, inactive: -0.238.
Turning to CGAGAACCGACCAUGCAGUTT against Ndufb11, the z-score is inactive: 0.369.
With CCACUUCCGAUGAGCCAGATT against Mrps10 the figure was active: -3.31; with GCUUUAAGAAAGAUUGACCTT against Caap1, inactive: 0.163; with GGCAAGAUCUUCAAGUGAATT against Eef1g, inactive: -0.809.
With GGUGGCAAACUUCAUUUUATT against Srsf2 the figure was inactive: -0.431; with GGCUGUGUAUUACUGCGCUTT against Vpreb2, inactive: -0.236; with GCCCUUCAUGCUCAUGAGUTT against Hccs, inactive: -0.827.
As to CGUUAGUCUGUGAAUGCACTT against Emc10, the z-score was inactive: -0.442.
Then GCGGUCUGUCCCUACUAAUTT against Dnajc4, with inactive: 1.69; and GGAACCAAAGUCAAAGGAGTT against Fip1l1, with inactive: 1.75; and GCUGAUUAGCCAUGUAAUUTT against Cebpg, with inactive: -0.481.
Then CCCUGUAAGGUUGAUUGUGTT against Oog3, with inactive: 0.535.
For the sequence GGAGGAAGUUGAACUAUUGTT against Brd3, the z-score was inactive: 0.07.
Then GGUUCUUGGGCACCAUUAUTT against Olfr786, with inactive: 0.742; and GGACAUUUUAUAAAUGGUGTT against Dcaf4, with inactive: -1.36; and GGUGGAGAAGCAGAUGCUUTT against Nek2, with active: 2.25.
With “GGGUAGGCAAAGUUUUCAATT against 1700029M20Rik” the figure was active: 4.63.
Then GGAACAAAGAUGUCAAACATT against Olfr466, with inactive: -0.993; and GGGCAUUUUUGAGAUGGUUTT against Syngr2, with inactive: 0.19.
As to GGAAUCAAUAAAUGUCUACTT against Cyb561, the z-score was inactive: -1.35.
With GGUUCUCUGCCAGUUCUGUTT against Mid1 the figure was active: 3.32; with GGAACAUUGAAAGGAUUAATT against Smc3, inactive: -1.9; with GGCAAAAAUUACCUGUUGATT against Alms1, inactive: -0.783.
CCGUCACAAUAGUCUCUGATT against Abhd15: the z-score was inactive: 0.805.
As for GGAUGGUAGAGUUCCUUUGTT against Lin52, the z-score was inactive: 0.616.
With GCAGGAGUUUAUCAGAGGATT against Prim2 the figure was inactive: -1.64.
Then GGGAAUUAACCCUAGUGCUTT against B4galt3, with inactive: -0.33; and CGAUUAAAAAGGGACAUAUTT against Grid1, with inactive: 0.946.
With CGUAAGAAAAAUAGCACAUTT against Ccdc14 the figure was inactive: 1.31.
For GGCCAACACUAACACAGACTT against Tmem268, the z-score is inactive: -0.357.
Then GGAGAAGAAUAGGAAUGCATT against Anpep, with inactive: -1.78; and CCUAAUCUAGAGCAACACATT against Ankrd34c, with inactive: -1.67.
Consider GGCAAAAACUGCUGAUCUGTT against Tex9, for which the z-score was inactive: 0.00236.
Regarding GGGAAGAAACUGUGAUUUUTT against Cbfa2t3, the z-score is inactive: 0.963.
Take GGACAAGUGUCAGAGCUGUTT against Mrnip: the z-score was inactive: -0.801.
With GGGUGCUUUUCUGAAAGUATT against Olfr1342 the figure was inactive: -0.911; with CGCUAACUUCCAAGUGCCUTT against Tacstd2, inactive: 0.529; with CACUGCUGUAAUCCCUAUGTT against Olfr1002, inactive: 0.4.
In the case of GGCCAACAAUUUGUCUGUCTT against Tg, the z-score was inactive: -0.783.
With GGUCUUCUUAGCUUUUUUUTT against Plppr1 the figure was inactive: -0.713; with GGCCUUGUUUUUAAGUAAATT against Atp12a, inactive: -0.178; with GUGGACUUUUAGCAAUCAGTT against Olfr98, inactive: -1.55.
With GGUUGCUAGAAAAAUGAAGTT against Nipbl the figure was inactive: -0.593; with CGAUUUCGCUGUUACUAAATT against Slc2a3, inactive: 0.733; with CGAGAGGUGAUCUUAGAUUTT against Qsox2, inactive: -0.369.
